According to patent US20080213860:
Substitutions are numbered along the chain they refer to. Construct, isoform or probe ends are uncertain for at least one entry. For some of these results: Weaker means in comparison with the reference protein, sequence or condition of that experiment. Where a protein sequence is shown, tags need not be part of it.

Assays:
Test in all cases: enzyme reaction in vitro
[1] = test system: T1, BsmI R266D (Bacillus stearothermophilus NUB36); conditions: ds-DNA cleavage; protein in an extract; only the site is given
T1 sequence: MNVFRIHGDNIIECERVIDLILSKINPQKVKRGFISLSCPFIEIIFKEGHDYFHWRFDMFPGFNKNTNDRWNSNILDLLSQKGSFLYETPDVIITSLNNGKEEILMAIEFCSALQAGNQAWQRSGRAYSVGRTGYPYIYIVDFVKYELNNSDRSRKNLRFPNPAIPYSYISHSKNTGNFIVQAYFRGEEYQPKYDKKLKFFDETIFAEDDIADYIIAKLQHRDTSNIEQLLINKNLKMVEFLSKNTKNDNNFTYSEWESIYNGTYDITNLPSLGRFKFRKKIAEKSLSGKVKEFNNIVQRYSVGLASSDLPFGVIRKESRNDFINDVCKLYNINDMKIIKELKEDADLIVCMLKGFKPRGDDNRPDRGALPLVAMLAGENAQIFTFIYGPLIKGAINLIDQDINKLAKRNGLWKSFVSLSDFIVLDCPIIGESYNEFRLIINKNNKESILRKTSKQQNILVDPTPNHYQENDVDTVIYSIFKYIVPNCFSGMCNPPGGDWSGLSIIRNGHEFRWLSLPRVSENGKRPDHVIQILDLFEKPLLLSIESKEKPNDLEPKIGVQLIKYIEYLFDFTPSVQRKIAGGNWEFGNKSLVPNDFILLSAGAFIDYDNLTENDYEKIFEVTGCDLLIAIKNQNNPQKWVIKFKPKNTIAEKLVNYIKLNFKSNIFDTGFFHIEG

[2] = test system: T2, BsmI R519D (Bacillus stearothermophilus NUB36); conditions: low nicking activity, low ds-DNA cleavage; protein in an extract; only the site is given
T2 sequence: T1 sequence with D266R, R519D

[3] = test system: T3, BsmI R159D (Bacillus stearothermophilus NUB36); conditions: low nicking activity; protein in an extract; only the site is given
T3 sequence: T1 sequence with R159D, D266R

[4] = test system: T4, BsmI R155D (Bacillus stearothermophilus NUB36); conditions: low nicking activity, low ds-DNA cleavage; protein in an extract; only the site is given
T4 sequence: T1 sequence with R155D, D266R

Sequence: GCATTC [pBR322 supercoiled plasmid (one BsmI site)]
- activity on this sequence [1]: active
- activity on this sequence [2]: less active
- activity on this sequence [3]: less active
- activity on this sequence [4]: less active
